No constants are given. Whether binding was seen depends on the method and setting. In cells and extracts the contact can be indirect. Some binding calls cover weakened binding; strength is not graded here.
Biological target: GRASP65 (GORASP1) (UniProt Q9BQQ3)
Assay: co-IP; co-immunoprecipitation with GRASP55 or GRASP65 (Fig. S4D); cells, antibodies and buffer not told in the main text

Chains of the proteins cited; added tags and fusions are not shown.
UniProt Q9BQQ3: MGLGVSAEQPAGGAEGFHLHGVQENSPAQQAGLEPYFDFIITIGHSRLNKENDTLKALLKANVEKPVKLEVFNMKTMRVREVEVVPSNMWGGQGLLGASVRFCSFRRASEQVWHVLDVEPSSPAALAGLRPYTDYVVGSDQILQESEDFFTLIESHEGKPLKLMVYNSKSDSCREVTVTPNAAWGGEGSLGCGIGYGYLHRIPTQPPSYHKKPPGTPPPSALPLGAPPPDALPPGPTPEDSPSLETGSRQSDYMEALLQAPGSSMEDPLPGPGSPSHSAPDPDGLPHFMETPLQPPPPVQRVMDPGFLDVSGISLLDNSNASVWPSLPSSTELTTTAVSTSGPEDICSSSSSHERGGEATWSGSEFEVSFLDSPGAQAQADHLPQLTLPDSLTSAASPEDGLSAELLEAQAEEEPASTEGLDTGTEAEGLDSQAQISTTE

binding	Binder
binds	GM130 (protein, UniProt Q08379 1-1002) MWPQPRLPPRPAMSEETRQSKLAAAKKKLREYQQRNSPGVPTGAKKKKKIKNGSNPETTTSGGCHSPEDTPKDNAATLQPSDDTVLPGGVPSPGASLTSMAASQNHDADNVPNLMDETKTFSSTESLRQLSQQLNGLVCESATCVNGEGPASSANLKDLESRYQQLAVALDSSYVTNKQLNITIEKLKQQNQEITDQLEEEKKECHQKQGALREQLQVHIQTIGILVSEKAELQTALAHTQHAARQKEGESEDLASRLQYSRRRVGELERALSAVSTQQKKADRYNKELTKERDALRLELYKNTQSNEDLKQEKSELEEKLRVLVTEKAGMQLNLEELQKKLEMTELLLQQFSSRCEAPDANQQLQQAMEERAQLEAHLGQVMESVRQLQMERDKYAENLKGESAMWRQRMQQMSEQVHTLREEKECSMSRVQELETSLAELRNQMAEPPPPEPPAGPSEVEQQLQAEAEHLRKELEGLAGQLQAQVQDNEGLSRLNREQEERLLELERAAELWGEQAEARRQILETMQNDRTTISRALSQNRELKEQLAELQSGFVKLTNENMEITSALQSEQHVKRELGKKLGELQEKLSELKETVELKSQEAQSLQQQRDQYLGHLQQYVAAYQQLTSEKEVLHNQLLLQTQLVDQLQQQEAQGKAVAEMARQELQETQERLEAATQQNQQLRAQLSLMAHPGEGDGLDREEEEDEEEEEEEAVAVPQPMPSIPEDLESREAMVAFFNSAVASAEEEQARLRGQLKEQRVRCRRLAHLLASAQKEPEAAAPAPGTGGDSVCGETHRALQGAMEKLQSRFMELMQEKADLKERVEELEHRCIQLSGETDTIGEYIALYQSQRAVLKERHREKEEYISRLAQDKEEMKVKLLELQELVLRLVGDRNEWHGRFLAAAQNPADEPTSGAPAPQELGAANQQGDLCEVSLAGSVEPAQGEAREGSPRDNPTAQQIMQLLREMQNPRERPGLGSNPCIPFFYRADENDEVKITVI
no binding	p23, also known as TMED10 (protein, UniProt P49755 32-219) ISFHLPINSRKCLREEIHKDLLVTGAYEISDQSGGAGGLRSHLKITDSAGHILYSKEDATKGKFAFTTEDYDMFEVCFESKGTGRIPDQLVILDMKHGVEAKNYEEIAKVEKLKPLEVELRRLEDLSESIVNDFAYMKKREEEMRDTNESTNTRVLYFSIFSMFCLIGLATWQVFYLRRFFKAKKLIE
